From PMC13423832

By UniProt entry, the sequences of proteins in these tests, tags left out. Where a name states a change or a piece, a line headed by the entry shows the natural chain unless it says otherwise.
UniProt P20674: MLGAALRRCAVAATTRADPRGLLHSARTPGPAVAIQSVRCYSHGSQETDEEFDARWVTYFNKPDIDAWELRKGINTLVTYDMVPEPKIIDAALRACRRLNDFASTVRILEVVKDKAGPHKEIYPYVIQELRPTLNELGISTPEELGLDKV

How the values were obtained:
Test in all cases: affinity purification with mass spectrometry; anti-FLAG resin on lysates (0.3% CHAPS, 20 mM HEPES) of HEK293T transiently overexpressing FLAG-tagged GFP, wild-type or mutant COX5A; 2 h, 4 °C; washes in 20 mM HEPES pH 7.40, 150 mM NaCl; elution in 8 M urea; LC-MS/MS
[1] = target: COX5A-FLAG, wild type (UniProt P20674)
[2] = target: D81W-COX5A-FLAG (UniProt P20674)
[3] = target: T79G-COX5A-FLAG (UniProt P20674)
[4] = target: Y80W-COX5A-FLAG (UniProt P20674)

Measured: binding

B1: PMPCB, beta subunit of the mitochondrial-processing peptidase (enzyme, UniProt O75439 44-489)
chain: STQAATQVVLNVPETRVTCLESGLRVASEDSGLSTCTVGLWIDAGSRYENEKNNGTAHFLEHMAFKGTKKRSQLDLELEIENMGAHLNAYTSREQTVYYAKAFSKDLPRAVEILADIIQNSTLGEAEIERERGVILREMQEVETNLQEVVFDYLHATAYQNTALGRTILGPTENIKSISRKDLVDYITTHYKGPRIVLAAAGGVSHDELLDLAKFHFGDSLCTHKGEIPALPPCKFTGSEIRVRDDKMPLAHLAIAVEAVGWAHPDTICLMVANTLIGNWDRSFGGGMNLSSKLAQLTCHGNLCHSFQSFNTSYTDTGLWGLYMVCESSTVADMLHVVQKEWMRLCTSVTESEVARARNLLKTNMLLQLDGSTPICEDIGRQMLCYNRRIPIPELEARIDAVNAETIREVCTKYIYNRSPAIAAVGPIKQLPDFKQIRSNMCWLRD
binds: all assays above

B2: PMPCA, alpha subunit of the mitochondrial-processing peptidase (enzyme, UniProt Q10713 34-525)
chain: SSGGAYPNIPLSSPLPGVPKPVFATVDGQEKFETKVTTLDNGLRVASQNKFGQFCTVGILINSGSRYEAKYLSGIAHFLEKLAFSSTARFDSKDEILLTLEKHGGICDCQTSRDTTMYAVSADSKGLDTVVALLADVVLQPRLTDEEVEMTRMAVQFELEDLNLRPDPEPLLTEMIHEAAYRENTVGLHRFCPTENVAKINREVLHSYLRNYYTPDRMVLAGVGVEHEHLVDCARKYLLGVQPAWGSAEAVDIDRSVAQYTGGIAKLERDMSNVSLGPTPIPELTHIMVGLESCSFLEEDFIPFAVLNMMMGGGGSFSAGGPGKGMFSRLYLNVLNRHHWMYNATSYHHSYEDTGLLCIHASADPRQVREMVEIITKEFILMGGTVDTVELERAKTQLTSMLMMNLESRPVIFEDVGRQVLATRSRKLPHELCTLIRNVKPEDVKRVASKMLRGKPAVAALGDLTDLPTYEHIQTALSSKDGRLPRTYRLFR
binds: all assays above

No constants are given. Whether binding was seen depends on the method and setting. Binding seen in cells or lysates may run through a third protein. These calls come from enrichment with a bait or labelling near it, and not all partners need be listed.
